According to PubChem BioAssay AID504467 (National Center for Advancing Translational Sciences (NCATS), 2011):
Out of some 330,000 compounds screened, about 7,700 (2.3%) were called active. Inconclusive results, whose numbers are uncertain, are shown with a selection of clear calls. Calls come from the whole dose curve; as a rule, active = well fitted inhibition curve with a large enough effect; inconclusive = small, poorly fitted or top-dose-only effect, or effect the other way; inactive = flat fitted curve, though single readings scatter. A potency beside an inconclusive call is a rough fit, not a confirmed value.

assay: qHTS screen for small molecules that inhibit ELG1-dependent DNA repair in human embryonic kidney (HEK293T) cells expressing luciferase-tagged ELG1; settings: HEK293T ELG1-luciferase reporter, luminescence, 16 h, DNA damage induced by 5-fluorouridine; activity change, negative = inhibition: at 46.1 µM (top of the series); note: nearly all actives have a fitted effect of over 55% in size
Summary of the method: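 Reporter activity after DNA damage by 5-fluorouridine is monitored. Compound-treated cells incubate 16 hr at 37 °C, then ONE-Glo is added for 30 min before luminescence reading.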
% is set by controls: 0 for no effect and ±100 for the full control effect; potency is the fitted concentration of half-maximal effect.

Compound | Potency | activity change, negative = inhibition
CC(NC(=O)CCNC(=O)c1ccc(Br)cc1)c1ccc(S(N)(=O)=O)cc1 (stereo unspecified) | inconclusive: 32.6 µM [inhibitor, single point] | 
CC1CC(C)CN(C(=O)c2nn(C)c3c2CSc2ccccc2-3)C1 (stereo unspecified) | inconclusive: 20.6 µM [inhibitor, partial curve, poor fit] | 
CCOC(=O)C(Cc1ccc(O)cc1)NC(=O)CNC(=O)C(CC(C)C)NC(=O)OC(C)(C)C (stereo unspecified) |  | inactive: 8.11%
NC(=O)NC(CC(=O)Nc1cccnc1)c1cccc(Br)c1 (stereo unspecified) |  | inactive: 10.2%
Cc1cc(C(=O)COC(=O)c2cccc(NS(C)(=O)=O)c2)c(C)n1CC1CCCO1 (stereo unspecified) | inconclusive: 0.58 µM [activator, partial curve] | 
O=C(NNc1ccnc2cc(Cl)ccc12)C1CCCCC1 | active: 0.517 µM | 
O=C(NCCCN1CCOCC1)c1sc2cc(F)ccc2c1Cl | inconclusive: 23.1 µM [activator, single point] | 
CCN(CC)C(=O)c1ccc(COc2ccc(Cl)c(C)c2)o1 | inconclusive: 0.316 µM [activator, full curve, poor fit] | 
Cc1ccc(NC(=O)CN(C)C(=O)CSc2nc3ccccc3c(=O)n2Cc2ccco2)cc1 | inconclusive: 18.4 µM [inhibitor, single point] | 
Cc1ccc(NC(=O)C(=O)c2ccc(C)cc2)cc1 | inconclusive: 13 µM [activator, partial curve] | 
CSc1nc2sc3c(c2c(=O)[nH]1)CCC(C)C3 (stereo unspecified) | inconclusive: 20.6 µM [activator, single point] | 
O=C(Nc1cccc(S(=O)(=O)Nc2ccccc2Cl)c1)c1ccc(Cl)nc1 | inconclusive: 0.92 µM [inhibitor, partial curve, poor fit] | 
CC(C)C[C@H](NC(=O)OC(C)(C)C)C(=O)N/N=C/c1ccc2nccnc2c1 |  | inactive: -8.12%
COc1ccccc1Nc1nc(N)nc(CSC(=S)N2CCOCC2)n1 | inconclusive: 18.3 µM [activator, partial curve] | 
CCCN1Cc2cccc(C(=O)Nc3ccc4c(c3)OCO4)c2C1=O | inconclusive: 29.1 µM [inhibitor, partial curve, poor fit] | 
Cc1ccc(-c2nnc(SCC(=O)N/N=C/c3ccccc3C(=O)O)n2-c2ccc(C)cc2)cc1 | inconclusive: 4.11 µM [inhibitor, partial curve, poor fit] | 
CCC(C)(C)NC(=O)C(c1ccc(C)cc1)N(Cc1cccs1)C(=O)c1ccc2c(c1)OCCO2 (stereo unspecified) |  | inactive: -16.7%
COc1ccc2c(c1)CC/C2=N\OC(=O)c1ccccc1C | inconclusive: 20.6 µM [activator, partial curve] | 
CCOC(=O)c1c(C=O)c2sc(C)cc2n1C | inconclusive: 16.4 µM [activator, partial curve, poor fit] | 
COc1ccccc1NC(=O)Nc1nc(CC(=O)Nc2ccc(N(C)C)cc2)cs1 |  | inactive: -5.2%
O=C(CN1C(=O)NC2(CCCCC2)C1=O)N1CCN(S(=O)(=O)c2ccccc2)CC1 |  | inactive: -14.6%
Cc1cc(Oc2nc3ccccn3c(=O)c2/C=C(\C#N)C(=O)NC2CCS(=O)(=O)C2)ccc1Cl (stereo unspecified) |  | inactive: -0.779%

3 entries from above, sorted by molar mass, falling:
Compound | Potency | activity change, negative = inhibition
COc1ccccc1NC(=O)Nc1nc(CC(=O)Nc2ccc(N(C)C)cc2)cs1 |  | inactive: -5.2%
CC(C)C[C@H](NC(=O)OC(C)(C)C)C(=O)N/N=C/c1ccc2nccnc2c1 |  | inactive: -8.12%
NC(=O)NC(CC(=O)Nc1cccnc1)c1cccc(Br)c1 (stereo unspecified) |  | inactive: 10.2%

(cont.)

Compound | Potency | activity change, negative = inhibition
COc1cc(CNc2ccc3[nH]c(=O)[nH]c3c2)cc(Br)c1OCC(=O)NC(C)(C)C | inconclusive: 18.4 µM [inhibitor, partial curve] | 
O=C(NCc1ccccn1)c1c(-c2ccccc2)sc2ccccc12 |  | inactive: -10.3%
COc1ccc2[nH]c3nc(SCC(=O)NC4CC4)nnc3c2c1 |  | inactive: 8.12%
CCS(=O)(=O)c1ccc(C(=O)Nc2cccc(Cl)c2)c(Cl)c1Cl | inconclusive: 23.1 µM [inhibitor, single point] | 
Cc1cccc(N2CCN(C(=O)Cc3cn(C)c4ccccc34)CC2)c1C | inconclusive: 23.1 µM [inhibitor, single point] | 
CCn1nccc1C(=O)Nc1ccc(Cl)c(Cl)c1 | inconclusive: 11.6 µM [activator, partial curve] | 
CCC(=O)N1CCc2cc(S(=O)(=O)CCC(=O)N3CCN(c4ccc(F)cc4)CC3)ccc21 | inconclusive: 16.4 µM [inhibitor, single point] | 
COc1ccc(-c2cc3nc(-c4ccccc4)cc(N4CCCC(O)C4)n3n2)cc1 (stereo unspecified) | active: 16.4 µM | 
O=C(c1ccc(=O)oc1)N1CCCc2ccccc21 | inconclusive: 9.2 µM [activator, single point] | 
C[C@H](CO)N1C[C@H](C)[C@@H](CN(C)C(=O)Nc2ccc(C(F)(F)F)cc2)Oc2ccc(NC(=O)Cn3cnnn3)cc2C1=O | inconclusive: 11.6 µM [activator, partial curve] | 
CCOC(=O)c1c(NC(=O)c2nn(CC)cc2Br)sc2c1CCCCC2 | inconclusive: 29.1 µM [inhibitor, single point] | 
CC(=O)Nc1ccnn1C1CCN(C(=O)c2cccc(C)c2C)CC1 |  | inactive: 10.1%
COc1ccc(S(=O)(=O)N2CCC(C(=O)N3CCCCCC3)CC2)cc1 | inconclusive: 29.1 µM [inhibitor, single point] | 
COc1ccc(-c2nc(-c3ccc(NC(=O)c4ccc(Br)o4)cc3)no2)cc1OC | inconclusive: 25.9 µM [activator, single point] | 
CC(NC(=O)NC1CCCCC1)C(c1cccs1)N1CCN(c2ccccc2)CC1 (stereo unspecified) | inconclusive: 23.1 µM [inhibitor, partial curve, poor fit] | 
O=C(Nc1cccnc1)c1ccc(COc2ccccc2Br)cc1 | inconclusive: 9.2 µM [inhibitor, partial curve, poor fit] | 
Cc1ccc(C(=O)Sc2cccccc2=O)cc1 | inconclusive: 4.11 µM [activator, partial curve] | 
CNC(=O)CSc1nc2nc(C)cc(C)n2n1 |  | inactive: 1.29%
Cc1ccsc1C(=O)N1CCc2ccccc2C1 | inconclusive: 20.6 µM [activator, single point] | 
CN(C(=O)c1ccc(NC(=O)Cc2cccc(NC(=O)C3CCN(C(=O)c4ccccc4)CC3)c2)cc1)C1CCCC1 | inconclusive: 20.6 µM [inhibitor, single point] | 
COc1ccc(COC(=O)C2=C(C)NC(=O)NC2c2ccc(OC)cc2)cc1 (stereo unspecified) | inconclusive: 10 µM [inhibitor, partial curve, poor fit] | 
CC(C)(C)C(=O)Nc1nc(NC(=O)C(C)(C)C)nc(-c2ccccc2Cl)n1 | inconclusive: 16.4 µM [inhibitor, partial curve, poor fit] | 

Compound | Potency | activity change, negative = inhibition
Cc1ccc2c(c1)Sc1c(ccc3ccccc13)N2 | inconclusive: 29.1 µM [activator, single point] | 
CCn1c(=O)c2sccc2n(Cc2ccccc2)c1=O |  | inactive: -11.8%
CCN(CC)CCNC(=O)C1CCN(S(=O)(=O)c2c(C)noc2/C=C/c2ccccc2F)CC1 | inconclusive: 29.1 µM [activator, partial curve, poor fit] | 
CCN(CC)c1ccc2cc(-c3nnc(-c4ccncc4)o3)c(=O)oc2c1 | inconclusive: 13 µM [activator, partial curve] | 
Cc1noc(C)c1COc1cccc(C(=O)NCc2ccccc2Cl)c1 | inconclusive: 32.6 µM [inhibitor, partial curve, poor fit] | 
O=C(O)CCC(=O)OCCc1cc2ccccc2c(=O)o1 | inconclusive: 29.1 µM [activator, partial curve, poor fit] | 
Cn1ccnc1C(O)(c1ccccc1)c1ccccc1 | inconclusive: 7.3 µM [activator, partial curve, poor fit] | 
Cc1nc2ccc(NS(=O)(=O)c3ccc(F)c(C)c3)cc2[nH]1 | inconclusive: 5.01 µM [inhibitor, full curve, poor fit] | 
COc1ccc(-c2oc(NC(=O)CSc3ncn[nH]3)c(C#N)c2-c2ccc(OC)cc2)cc1 | inconclusive: 10.3 µM [inhibitor, partial curve] | 
O=C(Nc1ncccc1Cl)C1COc2ccccc2O1 (stereo unspecified) | inconclusive: 10.3 µM [activator, partial curve] | 
COc1ccc(C(c2nnnn2Cc2ccccc2)N2CCN(c3nc4ccccc4s3)CC2)cc1OC (stereo unspecified) | inconclusive: 9.2 µM [inhibitor, partial curve, poor fit] | 
Cc1ccc(SCc2cc(=O)[nH]c(N3CCOCC3)n2)cc1 | inconclusive: 5.17 µM [activator, partial curve, poor fit] | 
CCc1nc2ccc(C(=O)N3CCN(CC)CC3)cc2nc1CC |  | inactive: 0%
CN(C)c1cccc2c(S(=O)(=O)NCc3ccc(S(N)(=O)=O)cc3)cccc12 | inconclusive: 18.3 µM [inhibitor, single point] | 
C=CCn1c(SCC(N)=O)nc2sc3c(c2c1=O)CCC3 |  | inactive: -14.2%
Cc1sc(NC(=O)C2C3CCC(C3)C2C(=O)O)c(C(N)=O)c1-c1ccc(C(C)(C)C)cc1 (stereo unspecified) |  | inactive: 4.02%
O=C(Cc1ccccc1F)Nc1ccc(SC(F)F)cc1 | inconclusive: 5.8 µM [activator, partial curve] | 
Cc1nnc(N2C(=O)C(O)=C(C(=O)c3ccco3)C2c2ccc(F)cc2)s1 (stereo unspecified) |  | inactive: -27.9%
Cc1ccc(C)c(NC(=O)c2cc(-c3ccccc3O)n[nH]2)c1 | inconclusive: 13 µM [activator, partial curve] | 
COc1ccccc1N1CCN(C(=O)c2cc(=O)c3c(C)cc(C)cc3o2)CC1 | active: 25.9 µM | 
CC1(C)O[C@@H]2CC3C4C[C@H](F)C5=CC(=O)C=CC5(C)C4C(O)CC3(C)[C@]2(C(=O)CO)O1 (stereo partly specified) | inconclusive: 5.62 µM [activator, full curve] | 
O=C(Cc1cccs1)Nc1cccc(C(=O)Nc2ccc(C(=O)O)cc2)c1 | inconclusive: 18.3 µM [inhibitor, single point] | 

Of the compounds above, these contain a cyano group:
Compound | Potency | activity change, negative = inhibition
Cc1cc(Oc2nc3ccccn3c(=O)c2/C=C(\C#N)C(=O)NC2CCS(=O)(=O)C2)ccc1Cl (stereo unspecified) |  | inactive: -0.779%
COc1ccc(-c2oc(NC(=O)CSc3ncn[nH]3)c(C#N)c2-c2ccc(OC)cc2)cc1 | inconclusive: 10.3 µM [inhibitor, partial curve] | 
